Experimental findings from paper PMC7862700 are described below.

This is a selection; strong and weak results do not stand in their true shares. At the low end of the ranking the order means little.

For this test, the target named is T1, ELF3 (UniProt P78545).
T1 sequence: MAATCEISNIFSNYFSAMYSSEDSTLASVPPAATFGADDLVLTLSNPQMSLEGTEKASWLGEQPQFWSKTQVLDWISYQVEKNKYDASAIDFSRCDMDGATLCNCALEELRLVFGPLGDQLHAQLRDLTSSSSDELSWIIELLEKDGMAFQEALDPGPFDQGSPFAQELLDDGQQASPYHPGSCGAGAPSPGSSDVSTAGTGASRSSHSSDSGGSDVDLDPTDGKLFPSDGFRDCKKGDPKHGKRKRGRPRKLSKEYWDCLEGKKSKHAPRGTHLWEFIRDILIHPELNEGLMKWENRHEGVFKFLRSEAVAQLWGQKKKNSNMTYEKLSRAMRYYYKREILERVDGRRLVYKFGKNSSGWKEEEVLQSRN
Put plainly: DAPPL (digital affinity profiling via proximity ligation, sequencing). To be noted: 10 mM Tris-HCl pH 7.5, 50 mM NaCl, 1 mM DTT, 4% glycerol, room temperature, 30 min; GST-TFs on glutathione beads, 16-mer random dsDNA library, 0.1% …; high values mean tight binding; double strand, one strand shown; scale: fold enrichment (6-mer frequency, TF over GST control).
In turn, ACGATA registered a binding signal of 1.04.
The value for TAGGAT was 1.03; that for CTTATT was 1.51.
Sequence TTATAA came in with a binding signal of 1.32.
In the case of GCTCAC, the binding signal worked out at 1.49.
The value for CTGGTA was 1.2.
The value for AAAGCC was 1.01.
The value for TTCACA was 0.974; that for GGAACT was 1.87.
Regarding GTGCCT, the binding signal turned out to be 0.697.
The value for ACCCAA was 1.26.
With AATTAA the figure was 1.24; with CCTTCT, 1.54; with GAATTG, 1.17.
As to CTAGGC, the binding signal is 0.954.
With ACCTCC the figure was 1.14.
With GGCTCG the figure was 1; with ACCGTT, 0.911.
Turning to TCTGTA, the binding signal was found to be 0.96.
With CGAATG the figure was 1.12; with GCGGCT, 0.933; with TTAGAT, 1.05.
The value for CGCCCA was 0.947.
With TTGGGG the figure was 1.24; with ATGCCG, 0.953; with GCAATG, 1.17.
TCAAAC returned a binding signal of 1.24.
With GATTTA the figure was 1.02; with CGCTCG, 1.35.
The value for GCCCGA was 1.21; that for CAGCCC was 1.35; that for GGTCTG was 0.941.
With TCTGGT the figure was 1.34.
With CCATCC, the binding signal was found to be 1.12.
The value for CACCAA was 1.1; that for CGCAAC was 0.848.
With TATAAT the figure was 1.27.
Sequence TCACTG had a binding signal of 1.48.
The value for CACTCC was 1.23.
